Test results from the supplement of paper PMC8728848.
The list shows a part of the results.

Legend:
Assay in all cases: glycan array binding signal (z-score within array); higher = stronger binding
Settings in all cases: glycan notation: IUPAC condensed, linker removed
[1] = biological target: GalNAc(b1-4)GlcNAc(b1-2)Man
In short: (§1)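 Glycan array data came from 3228 arrays in the Consortium for Functional Glycomics database, and only arrays with an available protein sequence were kept. Glycan names were put into IUPAC-condensed notation, and columns mapping to the same glycan were averaged. The binding signal is a within-array Z-score, averaged across arrays of one protein sequence run at different concentrations or buffers and across linkers. A negative Z-score can be read as non-binding.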

[2] = biological target: GalNAc(b1-4)GlcNAc(b1-2)Man(a1-3)[GalNAc(b1-4)GlcNAc(b1-2)Man(a1-6)]Man(b1-4)GlcNAc(b1-4)GlcNAc
In short: as §1

[3] = biological target: GalNAc(b1-4)GlcNAc(b1-3)GalNAc(b1-4)GlcNAc
In short: as §1

[4] = biological target: GalNAc(b1-4)GlcNAc6S
In short: as §1

[5] = biological target: GalNAc(b1-6)GalNAc
In short: as §1

[6] = biological target: GalNAc3S(b1-4)GlcNAc
In short: as §1

[7] = biological target: GalNAc3S(b1-4)GlcNAc3S
In short: as §1

[8] = biological target: GalNAc3S(b1-4)[Fuc(a1-3)]GlcNAc
In short: as §1

[9] = biological target: GalNAc4S6S(b1-4)GlcNAc
In short: as §1

[10] = biological target: GalNAc6S(b1-4)GlcNAc
In short: as §1

[11] = biological target: Glc(a1-4)Glc
In short: as §1

[12] = biological target: Glc(a1-4)Glc(a1-4)Glc(a1-4)Glc
In short: as §1

[13] = biological target: Glc(a1-6)Glc(a1-6)Glc
In short: as §1

[14] = biological target: Glc(a1-6)Glc(a1-6)Glc(a1-6)Glc
In short: as §1

[15] = biological target: Glc(b1-4)Glc
In short: as §1

[16] = biological target: Glc(b1-6)Glc
In short: as §1

[17] = biological target: GlcA(b1-3)Gal
In short: as §1

[18] = biological target: GlcA(b1-3)GlcNAc
In short: as §1

[19] = biological target: GlcA(b1-6)Gal
In short: as §1

[20] = biological target: GlcA3S(b1-3)Gal(b1-4)GlcNAc(b1-2)Man
In short: as §1

[21] = biological target: GlcA3S(b1-3)Gal(b1-4)GlcNAc(b1-3)Gal(b1-4)Glc
In short: as §1

[22] = biological target: GlcNAc(a1-3)Gal(b1-4)GlcNAc
In short: as §1

[23] = biological target: GlcNAc(a1-4)Gal(b1-3)GlcNAc
In short: as §1

[24] = biological target: GlcNAc(a1-4)Gal(b1-4)GalNAc
In short: as §1

[25] = biological target: GlcNAc(a1-4)Gal(b1-4)GlcNAc
In short: as §1

[26] = biological target: GlcNAc(a1-4)Gal(b1-4)GlcNAc(b1-3)Gal(b1-4)Glc
In short: as §1

[27] = biological target: GlcNAc(a1-4)Gal(b1-4)GlcNAc(b1-3)Gal(b1-4)GlcNAc
In short: as §1

[28] = biological target: GlcNAc(a1-4)Gal(b1-4)GlcNAc(b1-3)Gal(b1-4)GlcNAc(b1-3)Gal(b1-4)GlcNAc
In short: as §1

[29] = biological target: GlcNAc(a1-4)Gal(b1-4)GlcNAc(b1-3)Gal(b1-4)[Fuc(a1-3)]GlcNAc(b1-3)Gal(b1-4)[Fuc(a1-3)]GlcNAc
In short: as §1

[30] = biological target: GlcNAc(a1-6)Gal(b1-4)GlcNAc
In short: as §1

[31] = biological target: GlcNAc(b1-2)Gal(b1-3)GalNAc
In short: as §1

[32] = biological target: GlcNAc(b1-2)Man(a1-3)[GlcNAc(b1-2)Man(a1-6)]Man(b1-4)GlcNAc(b1-4)GlcNAc
In short: as §1

[33] = biological target: GlcNAc(b1-2)Man(a1-3)[GlcNAc(b1-2)Man(a1-6)]Man(b1-4)GlcNAc(b1-4)[Fuc(a1-6)]GlcNAc
In short: as §1

[34] = biological target: GlcNAc(b1-2)Man(a1-3)[GlcNAc(b1-4)][GlcNAc(b1-2)Man(a1-6)]Man(b1-4)GlcNAc(b1-4)GlcNAc
In short: as §1

[35] = biological target: GlcNAc(b1-2)Man(a1-3)[GlcNAc(b1-4)][GlcNAc(b1-2)Man(a1-6)]Man(b1-4)GlcNAc(b1-4)[Fuc(a1-6)]GlcNAc
In short: as §1

[36] = biological target: GlcNAc(b1-2)[GlcNAc(b1-4)]Man(a1-3)[GlcNAc(b1-2)Man(a1-6)]Man(b1-4)GlcNAc(b1-4)GlcNAc
In short: as §1

[37] = biological target: GlcNAc(b1-2)[GlcNAc(b1-4)]Man(a1-3)[GlcNAc(b1-4)][GlcNAc(b1-2)Man(a1-6)]Man(b1-4)GlcNAc(b1-4)GlcNAc
In short: as §1

[38] = biological target: GlcNAc(b1-2)[GlcNAc(b1-4)]Man(a1-3)[GlcNAc(b1-4)][GlcNAc(b1-2)[GlcNAc(b1-6)]Man(a1-6)]Man(b1-4)GlcNAc(b1-4)GlcNAc
In short: as §1

[39] = biological target: GlcNAc(b1-2)[GlcNAc(b1-4)]Man(a1-3)[GlcNAc(b1-4)][GlcNAc(b1-2)[GlcNAc(b1-6)]Man(a1-6)]Man(b1-4)GlcNAc(b1-4)[Fuc(a1-6)]GlcNAc
In short: as §1

[40] = biological target: GlcNAc(b1-2)[GlcNAc(b1-6)]Man(a1-6)[GlcNAc(b1-2)Man(a1-3)]Man(b1-4)GlcNAc(b1-4)GlcNAc
In short: as §1

[41] = biological target: GlcNAc(b1-2)[GlcNAc(b1-6)]Man(a1-6)[GlcNAc(b1-2)Man(a1-3)]Man(b1-4)GlcNAc(b1-4)[Fuc(a1-6)]GlcNAc
In short: as §1

[42] = biological target: GlcNAc(b1-2)[GlcNAc(b1-6)]Man(a1-6)[GlcNAc(b1-4)][GlcNAc(b1-2)Man(a1-3)]Man(b1-4)GlcNAc(b1-4)GlcNAc
In short: as §1

[43] = biological target: GlcNAc(b1-3)Fuc
In short: as §1

[44] = biological target: GlcNAc(b1-3)Gal
In short: as §1

[45] = biological target: GlcNAc(b1-3)Gal(b1-3)GalNAc
In short: as §1

B1: Aap arpt (Staphylococcus epidermidis) (protein)
chain: NNEAPQMSSTLQAEEGSNAEAPQSEPTKAEEGGNAEAAQSEPTKAEEGGNAEAPQSEPTKAEEGGNAEAAQSEPTKTEEGSNVKAAQSEPTKAEEGSNAEAPQSEPTKTEEGSNAKAAQSEPTKAEEGGNAEAAQSEPTKTEEGSNAEAPQSEPTKAEEGGYAEAPQSEPTKTEEGGNAEAPNVPTIKA
glycan array binding signal (z-score) [1]: 0.101
glycan array binding signal (z-score) [2]: -0.991
glycan array binding signal (z-score) [3]: -0.524
glycan array binding signal (z-score) [4]: -0.172
glycan array binding signal (z-score) [5]: -0.924
glycan array binding signal (z-score) [6]: 0.505
glycan array binding signal (z-score) [7]: 0.934
glycan array binding signal (z-score) [8]: -0.983
glycan array binding signal (z-score) [9]: 1.06
glycan array binding signal (z-score) [10]: 1.13
glycan array binding signal (z-score) [11]: 1.05
glycan array binding signal (z-score) [12]: 1.34
glycan array binding signal (z-score) [13]: 0.429
glycan array binding signal (z-score) [14]: 0.308
glycan array binding signal (z-score) [15]: 1.12
glycan array binding signal (z-score) [16]: -1.3
glycan array binding signal (z-score) [17]: -0.023
glycan array binding signal (z-score) [18]: 0.04
glycan array binding signal (z-score) [19]: 1.29
glycan array binding signal (z-score) [20]: 0.389
glycan array binding signal (z-score) [21]: 0.151
glycan array binding signal (z-score) [22]: -0.562
glycan array binding signal (z-score) [23]: -0.533
glycan array binding signal (z-score) [24]: 0.406
glycan array binding signal (z-score) [25]: -0.322
glycan array binding signal (z-score) [26]: -2.04
glycan array binding signal (z-score) [27]: 1.32
glycan array binding signal (z-score) [28]: 0.142
glycan array binding signal (z-score) [29]: 2.41
glycan array binding signal (z-score) [30]: -0.091
glycan array binding signal (z-score) [31]: 0.266
glycan array binding signal (z-score) [32]: -0.25
glycan array binding signal (z-score) [33]: 0.608
glycan array binding signal (z-score) [34]: -0.803
glycan array binding signal (z-score) [35]: -0.141
glycan array binding signal (z-score) [36]: 0.977
glycan array binding signal (z-score) [37]: 1.6
glycan array binding signal (z-score) [38]: -0.611
glycan array binding signal (z-score) [39]: 1.35
glycan array binding signal (z-score) [40]: 0.85
glycan array binding signal (z-score) [41]: -0.168
glycan array binding signal (z-score) [42]: 0.207
glycan array binding signal (z-score) [43]: 1.23
glycan array binding signal (z-score) [44]: -2.77
glycan array binding signal (z-score) [45]: 0.806
